Experimental data from patent US20090220562A1, “Osteogenic and anti-adipogenic oxysterols” (priority 2005, published 2009).
For at least one compound, name, drawing or mass did not settle the structure.

System: M2-10B4 marrow stromal cells
Assay: Alkaline phosphatase (ALP) activity assay on whole cell extracts of M2-10B4 marrow stromal cells
Format: cell-based, mouse
Conditions: concentrations between 0.5-10 μM
Procedure: Cells: M2-10B4 mouse marrow stromal cell line obtained from American Type Culture Collection (ATCC, Rockville, Md., U.S.A.) was derived from bone marrow stromal cells of a (C57BL/6J x C3H/HeJ) Fl mouse, and support human and murine myelopoiesis in long-term cultures (as per ATCC) and have the ability to differentiate into osteoblastic and adipocytic cells. Unless specified, these cells were cultured in RPMI 1640 containing 10% heat-inactivated FBS, and supplemented with 1 mM sodium pyruvate, 100 U/ml penicillin, and 100 U/ml streptomycin (all from Irvine Scientific).
Cells were always treated at 90% confluence. […]
Next, a combination of 22R and 20S oxysterols (RS, 2.5 μM each) were added in the presence or absence of SC as indicated. After 3 days, ALP activity was measured as described earlier. […] (B) M2 cells were treated as described in (A) and after 10 days matrix mineralization in cultures was quantified by a ^45Ca incorporation assay as described earlier. […] After 8 days, total RNA was isolated and analyzed for osteocalcin (Osc) and […] expression by Northern blotting as previously described. […] After 3 days, ALP activity was measured as previously described. […] After 10 days, matrix mineralization in cultures was quantified using a ^45Ca incorporation assay as previously described. […]

Row | SMILES | relative potency of induction of alkaline phosphatase activity [S>22S>22R]
1 | CC(C)CCC[C@](C)(O)[C@H]1CC[C@H]2[C@@H]3CC=C4C[C@@H](O)CC[C@]4(C)[C@H]3CC[C@@]21C [20S-hydroxycholesterol] | 20
2 | CC(C)CC[C@H](O)[C@@H](C)[C@H]1CC[C@H]2[C@@H]3CC=C4C[C@@H](O)CC[C@]4(C)[C@H]3CC[C@]12C [22S-hydroxycholesterol] | 20
